Reference: PubChem BioAssay AID1259405 (NCATS, 2018)

- Aim: 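Knock-downs that lift recombinant protein yield in hamster ovary cells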 (primary screen)
- System: Chinese hamster CHO-K1 ovary cells with stable secreted eGFP expression
- Reagent: single siRNA against mouse genes, 0.8 pmol siRNA per well (2 µl of 400 nM stock)
- Timing: 3 days
- Read-out: 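Percent of the per-plate non-targeting control median for intracellular GFP per well by laser scanning cytometry and for cell viability by ATP luminescence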
- Direction: GFP, % of control: higher = more GFP per well, higher productivity; viability (ATP), % of control: higher = more viable cells (more ATP)
- Hit rule: 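Called active when intracellular GFP, relative to negative control, is at or above 120%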
The whole screen tested about 50,000 reagents; shown is a random part of them. In the full data, about 4,000 (8%) got an active call. 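Mouse siRNA library applied to hamster cells; one well for each siRNA.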 A number with no mark means an inactive call. Reagents against one gene are numbered here.

gene	reagent no.	GFP, % of control	viability (ATP), % of control
Slc22a14	1	56.9	52.5
Slc22a14	2	99.9	87.1
Slc22a14	3	88.4	84.3
Scgb2b27	1	53.9	77.9
Scgb2b27	2	60	67
Scgb2b27	3	91.1	89.9
Serinc1	1	86.8	72.5
Serinc1	2	88.2	57.7
Serinc1	3	34.1	35.1
Or4f58	1	118	85.7
Or4f58	2	29.7	26.7
Or4f58	3	112	97.2
Slc18a3	1	86.7	55.4
Slc18a3	2	87.7	77.8
Slc18a3	3	151 (active)	94.1
Hpcal4	1	74.4	70.6
Hpcal4	2	72.8	68.3
Or10s1	1	138 (active)	62.9
Or10s1	2	63.5	79.1
Or10s1	3	41.8	69.5
Atp4a	1	111	92.7
Atp4a	2	98	73
Atp4a	3	95.1	84.2
Cebpe	1	57.5	60.7
Cebpe	2	89.5	43.7
Cebpe	3	125 (active)	110
Nup210	1	77.8	59.7
Nup210	2	57.6	78.7
Nup62	1	98.6	65.5
Nup62	2	97.1	89.4
Nup62	3	45.1	57.5
Anpep	1	83.2	62.5
Anpep	2	32.3	29.1
Anpep	3	36.5	48.2

3 entries already listed, ordered by “viability (ATP), % of control”, highest first:
gene	reagent no.	GFP, % of control	viability (ATP), % of control
Slc18a3	3	151 (active)	94.1
Hpcal4	1	74.4	70.6
Hpcal4	2	72.8	68.3
